Laboratory results reported in patent US7279548.
These are yes or no findings as the source states them, for the method shown. Some results given as binding are weak or reduced against the parent protein; the word gives no strength.

Sequences of proteins named here, by UniProt entry; tags and fusion partners are left off. A change or cut given only in a name is not applied to a line headed by its entry.
UniProt P51795: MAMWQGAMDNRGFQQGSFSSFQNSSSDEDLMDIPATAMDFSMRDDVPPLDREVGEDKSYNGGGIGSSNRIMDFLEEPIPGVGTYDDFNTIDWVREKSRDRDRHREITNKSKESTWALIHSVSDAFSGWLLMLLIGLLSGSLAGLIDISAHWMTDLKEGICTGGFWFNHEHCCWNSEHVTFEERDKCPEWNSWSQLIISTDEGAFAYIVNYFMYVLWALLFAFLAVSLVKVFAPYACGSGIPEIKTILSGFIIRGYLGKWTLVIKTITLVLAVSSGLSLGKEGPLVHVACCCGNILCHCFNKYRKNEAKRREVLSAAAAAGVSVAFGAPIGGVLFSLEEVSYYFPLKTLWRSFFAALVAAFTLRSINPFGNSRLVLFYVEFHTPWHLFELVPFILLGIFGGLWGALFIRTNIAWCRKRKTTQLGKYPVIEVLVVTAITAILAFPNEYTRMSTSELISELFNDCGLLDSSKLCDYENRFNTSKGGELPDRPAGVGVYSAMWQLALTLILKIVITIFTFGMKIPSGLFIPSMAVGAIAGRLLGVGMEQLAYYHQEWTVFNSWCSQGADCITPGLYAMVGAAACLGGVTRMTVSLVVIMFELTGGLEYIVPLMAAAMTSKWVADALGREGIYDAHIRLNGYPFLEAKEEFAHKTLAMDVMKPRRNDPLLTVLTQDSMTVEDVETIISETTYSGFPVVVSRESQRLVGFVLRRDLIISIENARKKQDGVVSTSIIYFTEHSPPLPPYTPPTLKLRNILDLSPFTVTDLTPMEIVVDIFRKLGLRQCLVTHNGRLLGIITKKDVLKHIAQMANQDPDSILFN

Tests used:
[1] = molecular target: WWP1.4 WW domain expressed as GST fusion protein (human); assay: ELISA cross affinity mapping, GST-WW fusion
[2] = molecular target: WWP2.4 WW domain expressed as GST fusion protein (human); assay: ELISA cross affinity mapping, GST-WW fusion

binding [1]: binds
binding [2]: binds
Binder: SPPLPPYTPP (peptide, UniProt P51795 736-745, looked up, biotinylated) [renal chloride channel CLCN5 peptide]
